Results taken from patent US20250297116A1, “PRECURSOR COMPOUNDS FOR MOLECULAR COATINGS” (Apeel Technology, Inc., priority 2015, published 2025).

System: blueberries
Test: Average daily mass loss rate and residues of coated blueberries
Conditions: bag coated, 10 mg/mL in ethanol

SMILES	visible residues on surface
CCCCCCCCCCCCCCCCCC(=O)OCC(O)CO (stereo not shown) [SA-1G, 2,3-dihydroxypropan-1-yl octadecanoate]	heavy (wide-spread visible residues covering most or all of the surface)
CCCCCCCCCCCCCCCCCC(=O)OC(CO)CO [SA-2G, 1,3-dihydroxypropan-2-yl octadecanoate]	heavy (wide-spread visible residues covering most or all of the surface)
CCCCCCCCCCCCCCCC(=O)OCC(O)CO (stereo not shown) [PA-1G, 2,3-dihydroxypropan-1-yl palmitate]	heavy (wide-spread visible residues covering most or all of the surface)
CCCCCCCCCCCCCCCC(=O)OC(CO)CO [PA-2G, 1,3-dihydroxypropan-2-yl palmitate]	heavy (wide-spread visible residues covering most or all of the surface)

Some compounds share one wording; it may come from a single statement.
